{
  "sequences": {"note": "Chains of the proteins cited; added tags and fusions are not shown.", "UniProt Q13526, whole entry": "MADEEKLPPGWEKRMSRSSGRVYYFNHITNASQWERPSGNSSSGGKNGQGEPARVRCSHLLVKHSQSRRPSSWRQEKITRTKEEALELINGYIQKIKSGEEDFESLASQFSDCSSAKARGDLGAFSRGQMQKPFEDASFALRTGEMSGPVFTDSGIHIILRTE"},
  "source": "patent US12583818B2",
  "about": "(DAEGU-GYEONGBUK MEDICAL INNOVATION FOUNDATION, priority 2020, dated 2026)",
  "key": {"[1]": {"test_system": "A2780-SP cells (ovarian cancer stem cells)", "test": "Sphere cell viability of A2780-SP cells (Cell-titer Glo)", "details": "read-out: A2780-SP, culture for 8 days", "method": "(§1) In order to confirm the inhibitory effect of the compound represented by formula 1 according to the present invention on the growth of MCF7, MCF7-SP, A2780 or A2780-SP cells, the following experiment was performed, and the results are shown in Tables 4 and 5 below.\nOn the other hand, A2780-SP cells (ovarian cancer stem cells) were plated in an Ultra-Low Attachment round bottom 96-well plate (corning) at the density of 1,500 viable cells per well, and cultured in cancer stem cell medium. The cancer stem cell medium is composed of the neurobasal medium supplemented with 20 ng/ml of bFGF, 10 ng/ml of EGF, […] of amphotericin B, HEPES, Glutamax and B27.\nOn the next day of culture, the cells were treated with the compound of Examples 57, and 69 to 144, followed by culture for 8 days. The medium containing the compound was added thereto once again on the 4th day. Sphere cell viability was evaluated by Cell-titer Glo (Promega, WC, USA), and luciferase activity was detected using a Tecan plate reader (Biocompare, USA)."}, "Pin1": {"target": "Pin1 (Homo sapiens, UniProt Q13526)", "test": "Evaluation of Pin1 enzyme inhibitory activity (Sensolyte Green Pin1 assay kit)", "details": "read-out: Pin 1 inhibition; concentration at which the Pin1 enzyme activity is inhibited; 2 hours at room temperature, fluorescence 490 nm/520 nm", "method": "In order to evaluate the Pin1 enzyme inhibitory activity of the compound represented by formula 1 according to the present invention, the following experiment was performed, and the results are shown in Table 2 below.\nThe enzyme activity of Pin1 protein was measured using a sensolyte Green Pin1 assay kit of Anaspec. The substrate was diluted in a buffer at a ratio of 1:100 to prepare a concentration of 1 μM, and the protein was diluted in a buffer at a ratio of 1:20 to prepare a concentration of 50 μg/ml. In addition, a developing solution was prepared by diluting thereof in a buffer at a ratio of 1:100.\nThe compound prepared in each example was diluted with DMSO and prepared at a concentration of 100 μM, 10 μM, 1 μM or 0.1 μM using a buffer. After sequentially adding 10 μl of the compound prepared in each Example diluted to four concentrations according to the above method, 10 μl of Pin1 protein, and 30 μl of the developing solution to each well of a black 96-well plate, […]. Finally, 50 μl of the substrate was added to each well of the plate, and the enzyme reaction was carried out after shaking the plate for 10 seconds.\nThen, the plate was incubated for 2 hours at room temperature in an environment without light, and the fluorescence values at 490 nm/520 nm wavelength were measured using a device of Synergy Neo (Tecan). […]"}, "[2]": {"test_system": "A2780 cells (ovarian cancer cells)", "test": "Cell viability of A2780 cells (Cell-titer Glo)", "details": "read-out: A2780, culture for 3 days", "method": "as §1\nIn addition, A2780 cells (ovarian cancer cells) were plated in a 96-well plate at the density of 3000 viable cells per well, and cultured in RPMI-1640 medium supplemented with 10% FBS and 1% penicillin/streptomycin.\nOn the next day of culture, the cells were treated with the compound of Examples 57, and 69 to 144, followed by culture for 3 days. Cell viability was evaluated by Cell-titer Glo (Promega, WC, USA), and luciferase activity was detected using a Tecan plate reader (Biocompare, USA)."}},
  "note": "pIC50: −log10 of the molar value. The match of structure and compound is tentative.",
  "data": [
    {"smiles": "CN1CCN(c2ccnc(Nc3ccc(S(=O)(=O)NCCCc4c[nH]c5ccc(Cl)cc45)cc3)n2)CC1", "values": [
      {"measurement": "pIC50", "setting": "[1]", "value": "5.00 to 6.00"},
      {"measurement": "pIC50", "setting": "Pin1", "value": "> 6.00"},
      {"measurement": "pIC50", "setting": "[2]", "value": "< 5.00"}
    ]}
  ]
}
